≈ marks a conversion by molar mass, not a printed value.
Assay: physchem
Description: Triblock copolymers of Example 2 were used. The neat polymer and the drug were mixed and gently heated (ca. 50° C.) to completely dissolve the drug. Water was added to the mixture to afford a 23% by weight aqueous solution of the triblock copolymers. The solution was allowed to stand for 30 minutes before filtration (0.2 μm pore size filter).

## COC(=O)C1=C(C)NC(C)=C(C(=O)OC)C1c1ccccc1[N+](=O)[O-] [nifedipine]
  increase of solubility: ~1000 fold
water, water solubility
  solubility: 6 µg/mL (≈ 17.3 µM)

— patent US20020192286A1, “Biodegradable triblock copolymers as solubilizing agents for drugs and method of use thereof” (Macromed, Incorporated, priority 2001, published 2002)
